For the test, the target named is Myeloperoxidase (human). In words: affinity purification with mass spectrometry.

No constants are given. Whether binding was seen depends on the method and setting. Binding seen in cells or lysates may run through a third protein. Here binding means that the protein was enriched with, or labelled near, the bait; the list need not be complete.

B1: ILF3 (protein, UniProt Q12906 1-894)
chain: MRPMRIFVNDDRHVMAKHSSVYPTQEELEAVQNMVSHTERALKAVSDWIDEQEKGSSEQAESDNMDVPPEDDSKEGAGEQKTEHMTRTLRGVMRVGLVAKGLLLKGDLDLELVLLCKEKPTTALLDKVADNLAIQLAAVTEDKYEILQSVDDAAIVIKNTKEPPLSLTIHLTSPVVREEMEKVLAGETLSVNDPPDVLDRQKCLAALASLRHAKWFQARANGLKSCVIVIRVLRDLCTRVPTWGPLRGWPLELLCEKSIGTANRPMGAGEALRRVLECLASGIVMPDGSGIYDPCEKEATDAIGHLDRQQREDITQSAQHALRLAAFGQLHKVLGMDPLPSKMPKKPKNENPVDYTVQIPPSTTYAITPMKRPMEEDGEEKSPSKKKKKIQKKEEKAEPPQAMNALMRLNQLKPGLQYKLVSQTGPVHAPIFTMSVEVDGNSFEASGPSKKTAKLHVAVKVLQDMGLPTGAEGRDSSKGEDSAEETEAKPAVVAPAPVVEAVSTPSAAFPSDATAEQGPILTKHGKNPVMELNEKRRGLKYELISETGGSHDKRFVMEVEVDGQKFQGAGSNKKVAKAYAALAALEKLFPDTPLALDANKKKRAPVPVRGGPKFAAKPHNPGFGMGGPMHNEVPPPPNLRGRGRGGSIRGRGRGRGFGGANHGGYMNAGAGYGSYGYGGNSATAGYSQFYSNGGHSGNASGGGGGGGGGSSGYGSYYQGDNYNSPVPPKHAGKKQPHGGQQKPSYGSGYQSHQGQQQSYNQSPYSNYGPPQGKQKGYNHGQGSYSYSNSYNSPGGGGGSDYNYESKFNYSGSGGRSGGNSYGSGGASYNPGSHGGYGGGSGGGSSYQGKQGGYSQSNYNSPGSGQNYSGPPSSYQSSQGGYGRNADHSMNYQYR
With B1, the binding entry was “binds”.
